No constants are given. Whether binding was seen depends on the method and setting. Some results given as binding are weak or reduced against the parent protein; the word gives no strength.
Biological target: Protein Interacting with C Kinase-1 (PICK1), purified recombinant (UniProt Q9EP80)
Assay: analytical size exclusion chromatography

Protein sequences, listed by entry. Tags and fused reporters are not part of them.
UniProt Q9EP80: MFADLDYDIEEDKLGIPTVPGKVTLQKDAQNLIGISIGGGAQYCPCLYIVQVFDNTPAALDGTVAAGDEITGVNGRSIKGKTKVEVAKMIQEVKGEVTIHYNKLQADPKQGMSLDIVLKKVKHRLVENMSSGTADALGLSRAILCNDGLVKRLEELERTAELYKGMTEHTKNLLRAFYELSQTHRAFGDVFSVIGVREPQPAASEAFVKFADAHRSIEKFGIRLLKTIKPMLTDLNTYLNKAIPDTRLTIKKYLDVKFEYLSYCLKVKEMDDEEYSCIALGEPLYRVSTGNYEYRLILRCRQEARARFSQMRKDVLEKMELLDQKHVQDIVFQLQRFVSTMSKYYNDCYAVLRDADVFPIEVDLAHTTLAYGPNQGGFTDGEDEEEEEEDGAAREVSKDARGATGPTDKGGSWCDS

With “Protein Interacting with C Kinase-1 (PICK1), purified recombinant (from UniProt Q9EP80 1-416)” the binding was “binds”.
